For at least one compound, name, drawing or mass did not settle the structure.
Assay: Critical aggregation concentration (CAC) by surface tension
Type: physicochemical
Conditions: pure water containing 0.3% ethanol, room temperature
Experimental: The critical aggregation concentration (CAC) of the ceramides is the concentration at which aggregation of monomers to an amphiphile assembly occurs. CAC of the C2, C6, and C16 ceramides was determined in filtered pure water containing 0.3% ethanol by measuring at room temperature surface tension as a function of ceramide concentration. The measurements were done using μThrougs Kibron System (Helsinki, Finland) which determine the surface tension at the air/water interface. The measurement at each concentration was repeated until a constant value of surface tension was reached [Zuidam, N. and Barenholz, Y., Supra (1997)]

Row | SMILES | CAC (critical aggregation concentration)
1 | CCCCCCCCCCCCC/C=C/[C@@H](O)[C@H](CO)NC(=O)CCCCC [C6Cer, N-hexanoyl-D-erythro-sphingosine] | 10^−4-10^−5M
2 | CCCCCCCCCCCCC/C=C/[C@@H](O)[C@H](CO)NC(=O)CCCCCCCCCCCCCCC [C16Cer, N-palmitoyl-D-erythro-sphingosine] | 10^−9-10^−10M

Reference: patent US20060198882A1, “Stable liposomes or micelles comprising a sphinolipid and a peg-lipopolymer” (priority 2003, published 2006)
